Assay results

Data taken from PubChem BioAssay AID504749, deposited by NCATS (2011).

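Malaria parasite (P. falciparum) lines kept in red blood cells; parasite DNA is measured by SYBR Green fluorescence after lysis, 72 h after compound addition.
Each compound was titrated across a series from about 0.000037 to 29 µM.
The number is the fitted AC50, the concentration giving a half-maximal change in signal; a lower value means higher potency, whether the curve shows a decrease or an increase.
Calls follow the curve class and fit quality: every row here is inconclusive, covering signal-raising curves and weak, poorly fitted, partial or highest-dose-only inhibition curves.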

Values are in µM.
Every entry below has the call inconclusive.
Only part of the assay is shown, chiefly results filed as inconclusive.
A potency from a partial, single-point or poor curve is only a rough figure.

* C[C@@H]1c2cccc(O)c2C(O)=C2C(=O)[C@@]3(O)C(O)=C(C(N)=O)C(=O)[C@@H](N(C)C)[C@@H]3[C@@H](O)[C@@H]21 [CP268] : potency 16.94 µM (inhibitor, partial curve, poor fit)
* C[C@@H]1c2cccc(O)c2C(O)=C2C(=O)[C@@]3(O)C(O)=C(C(N)=O)C(=O)[C@@H](N(C)C)[C@@H]3[C@@H](O)[C@@H]21 [CP325] : potency 8.492 µM (inhibitor, partial curve)
* C[C@@H]1c2cccc(O)c2C(O)=C2C(=O)[C@@]3(O)C(O)=C(C(N)=O)C(=O)[C@@H](N(C)C)[C@@H]3[C@@H](O)[C@@H]21 [ATS189] : potency 11.22 µM (inhibitor, single point)
* C[C@@H]1c2cccc(O)c2C(O)=C2C(=O)[C@@]3(O)C(O)=C(C(N)=O)C(=O)[C@@H](N(C)C)[C@@H]3[C@@H](O)[C@@H]21 [CP238] : potency 12.59 µM (inhibitor, single point)
* C[C@@H]1c2cccc(O)c2C(O)=C2C(=O)[C@@]3(O)C(O)=C(C(N)=O)C(=O)[C@@H](N(C)C)[C@@H]3[C@@H](O)[C@@H]21 [P93_24] : potency 11.22 µM (inhibitor, single point)
* C[C@@H]1c2cccc(O)c2C(O)=C2C(=O)[C@@]3(O)C(O)=C(C(N)=O)C(=O)[C@@H](N(C)C)[C@@H]3[C@@H](O)[C@@H]21 [CP256] : potency 7.943 µM (inhibitor, single point)
* C[C@@H]1c2cccc(O)c2C(O)=C2C(=O)[C@@]3(O)C(O)=C(C(N)=O)C(=O)[C@@H](N(C)C)[C@@H]3[C@@H](O)[C@@H]21 [CP185] : potency 10 µM (inhibitor, single point)
* C[C@@H]1c2cccc(O)c2C(O)=C2C(=O)[C@@]3(O)C(O)=C(C(N)=O)C(=O)[C@@H](N(C)C)[C@@H]3[C@@H](O)[C@@H]21 [CP286] : potency 8.912 µM (inhibitor, partial curve)
* C[C@@H]1c2cccc(O)c2C(O)=C2C(=O)[C@@]3(O)C(O)=C(C(N)=O)C(=O)[C@@H](N(C)C)[C@@H]3[C@@H](O)[C@@H]21 [ATS95] : potency 5.623 µM (inhibitor, partial curve)
* C[C@@H]1c2cccc(O)c2C(O)=C2C(=O)[C@@]3(O)C(O)=C(C(N)=O)C(=O)[C@@H](N(C)C)[C@@H]3[C@@H](O)[C@@H]21 [CP237] : potency 10 µM (inhibitor, single point)
* C[C@@H]1c2cccc(O)c2C(O)=C2C(=O)[C@@]3(O)C(O)=C(C(N)=O)C(=O)[C@@H](N(C)C)[C@@H]3[C@@H](O)[C@@H]21 [HB3] : potency 12.59 µM (inhibitor, partial curve)
* C[C@@H]1c2cccc(O)c2C(O)=C2C(=O)[C@@]3(O)C(O)=C(C(N)=O)C(=O)[C@@H](N(C)C)[C@@H]3[C@@H](O)[C@@H]21 [DIV17] : potency 12 µM (inhibitor, partial curve)
* C[C@@H]1c2cccc(O)c2C(O)=C2C(=O)[C@@]3(O)C(O)=C(C(N)=O)C(=O)[C@@H](N(C)C)[C@@H]3[C@@H](O)[C@@H]21 [CP315] : potency 19.01 µM (inhibitor, single point)
* C[C@@H]1c2cccc(O)c2C(O)=C2C(=O)[C@@]3(O)C(O)=C(C(N)=O)C(=O)[C@@H](N(C)C)[C@@H]3[C@@H](O)[C@@H]21 [TAB165] : potency 4.467 µM (inhibitor, partial curve)
* COc1ccnc(CS(=O)c2nc3ccc(OC(F)F)cc3[nH]2)c1OC (stereo not given) [PC26] : potency 12 µM (inhibitor, partial curve)
* COc1ccnc(CS(=O)c2nc3ccc(OC(F)F)cc3[nH]2)c1OC (stereo not given) [DIV30] : potency 15.1 µM (inhibitor, single point)
* C=C1CC[C@@]2(O)[C@H]3Cc4ccc(O)c5c4[C@@]2(CCN3CC2CC2)[C@H]1O5 [Dd2] : potency 12.59 µM (inhibitor, partial curve)

Once more, the final 2:

Compound,setting,potency (µM),curve as filed
COc1ccnc(CS(=O)c2nc3ccc(OC(F)F)cc3[nH]2)c1OC (stereo not given),DIV30,15.1,"inhibitor, single point"
C=C1CC[C@@]2(O)[C@H]3Cc4ccc(O)c5c4[C@@]2(CCN3CC2CC2)[C@H]1O5,Dd2,12.59,"inhibitor, partial curve"